Source: paper PMC5451212, “RISC-interacting clearing 3’- 5’ exoribonucleases (RICEs) degrade uridylated cleavage fragments to maintain functional RISC in Arabidopsis thaliana” (eLife, 2017)
Results are given in words; binding and its absence hold for the method and conditions named. Sequences can lack the tags named with a protein.

Key:
[1] = biological target: T1, 6His-SUMO-RICE2 (A. thaliana) (UniProt Q9FNG3); assay: pull-down; His-SUMO baits and MBP-fusion preys purified from E. coli; prey preabsorbed on Ni-NTA resin, then incubated with bait 1 hr at room temperature and captured on Ni-NTA; 50 mM Tris pH 7.5, 150 mM NaCl, 0.2% glycerol, 0.6% Triton X-100, 0.5 mM β-mercaptoethanol; six washes with 300 mM NaCl; blot with anti-MBP; both purified
T1 sequence: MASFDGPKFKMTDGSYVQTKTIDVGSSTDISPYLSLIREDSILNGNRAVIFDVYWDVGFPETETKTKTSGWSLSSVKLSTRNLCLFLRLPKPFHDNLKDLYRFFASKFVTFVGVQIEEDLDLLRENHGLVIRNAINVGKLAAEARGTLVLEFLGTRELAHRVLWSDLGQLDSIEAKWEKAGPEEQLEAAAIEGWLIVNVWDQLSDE

[2] = biological target: T2, 6His-SUMO-RICE1 (A. thaliana) (UniProt Q9SF21); assay: as above
T2 sequence: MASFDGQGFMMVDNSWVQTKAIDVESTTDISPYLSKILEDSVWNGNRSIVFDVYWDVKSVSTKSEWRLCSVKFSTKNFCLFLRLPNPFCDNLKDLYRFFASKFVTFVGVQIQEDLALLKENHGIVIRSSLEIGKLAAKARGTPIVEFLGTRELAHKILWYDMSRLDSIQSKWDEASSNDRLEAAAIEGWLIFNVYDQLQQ

Substance | binding [1] | binding [2]
MBP-tagged variable part of the AGO1 N-terminal domain (A. thaliana) (domain or fragment) | no binding | no binding
MBP-tagged variable part of the AGO10 N-terminal domain (A. thaliana) (domain or fragment) | no binding | no binding
